From publication PMC12281688
These are yes or no findings as the source states them, for the method shown. In cells and extracts the contact can be indirect. Some results given as binding are weak or reduced against the parent protein; the word gives no strength.

Protein sequences, listed by entry. Tags and fused reporters are not part of them. Residues count along the entry.
UniProt Q92633: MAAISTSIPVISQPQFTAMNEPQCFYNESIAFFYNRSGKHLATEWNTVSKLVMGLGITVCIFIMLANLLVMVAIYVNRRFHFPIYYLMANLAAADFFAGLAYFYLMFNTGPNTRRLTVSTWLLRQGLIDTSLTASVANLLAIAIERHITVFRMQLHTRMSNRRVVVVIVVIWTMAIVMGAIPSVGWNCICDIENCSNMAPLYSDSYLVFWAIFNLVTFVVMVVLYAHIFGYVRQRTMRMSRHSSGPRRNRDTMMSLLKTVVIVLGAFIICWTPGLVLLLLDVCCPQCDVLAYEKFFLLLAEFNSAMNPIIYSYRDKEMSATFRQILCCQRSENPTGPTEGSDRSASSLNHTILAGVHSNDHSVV
UniProt P26038: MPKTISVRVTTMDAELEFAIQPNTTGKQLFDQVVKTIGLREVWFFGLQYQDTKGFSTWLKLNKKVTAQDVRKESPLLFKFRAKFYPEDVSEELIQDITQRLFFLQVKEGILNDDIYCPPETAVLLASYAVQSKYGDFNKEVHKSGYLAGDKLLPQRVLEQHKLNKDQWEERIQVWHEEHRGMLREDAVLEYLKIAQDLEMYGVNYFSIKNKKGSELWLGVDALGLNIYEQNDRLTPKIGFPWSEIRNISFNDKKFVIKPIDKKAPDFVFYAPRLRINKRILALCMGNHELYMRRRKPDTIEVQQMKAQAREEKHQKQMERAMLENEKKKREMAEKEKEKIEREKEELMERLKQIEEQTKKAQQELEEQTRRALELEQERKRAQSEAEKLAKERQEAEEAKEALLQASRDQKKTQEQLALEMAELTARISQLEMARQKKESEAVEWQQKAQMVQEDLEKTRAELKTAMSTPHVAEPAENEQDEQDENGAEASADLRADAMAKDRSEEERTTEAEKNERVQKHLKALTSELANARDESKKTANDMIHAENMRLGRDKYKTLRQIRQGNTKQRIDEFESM
UniProt P05231, residues 30-212: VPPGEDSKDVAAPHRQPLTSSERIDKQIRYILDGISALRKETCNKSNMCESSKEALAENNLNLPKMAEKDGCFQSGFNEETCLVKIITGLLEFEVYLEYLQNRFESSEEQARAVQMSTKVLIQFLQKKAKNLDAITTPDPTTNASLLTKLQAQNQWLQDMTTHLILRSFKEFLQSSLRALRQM
UniProt P40763: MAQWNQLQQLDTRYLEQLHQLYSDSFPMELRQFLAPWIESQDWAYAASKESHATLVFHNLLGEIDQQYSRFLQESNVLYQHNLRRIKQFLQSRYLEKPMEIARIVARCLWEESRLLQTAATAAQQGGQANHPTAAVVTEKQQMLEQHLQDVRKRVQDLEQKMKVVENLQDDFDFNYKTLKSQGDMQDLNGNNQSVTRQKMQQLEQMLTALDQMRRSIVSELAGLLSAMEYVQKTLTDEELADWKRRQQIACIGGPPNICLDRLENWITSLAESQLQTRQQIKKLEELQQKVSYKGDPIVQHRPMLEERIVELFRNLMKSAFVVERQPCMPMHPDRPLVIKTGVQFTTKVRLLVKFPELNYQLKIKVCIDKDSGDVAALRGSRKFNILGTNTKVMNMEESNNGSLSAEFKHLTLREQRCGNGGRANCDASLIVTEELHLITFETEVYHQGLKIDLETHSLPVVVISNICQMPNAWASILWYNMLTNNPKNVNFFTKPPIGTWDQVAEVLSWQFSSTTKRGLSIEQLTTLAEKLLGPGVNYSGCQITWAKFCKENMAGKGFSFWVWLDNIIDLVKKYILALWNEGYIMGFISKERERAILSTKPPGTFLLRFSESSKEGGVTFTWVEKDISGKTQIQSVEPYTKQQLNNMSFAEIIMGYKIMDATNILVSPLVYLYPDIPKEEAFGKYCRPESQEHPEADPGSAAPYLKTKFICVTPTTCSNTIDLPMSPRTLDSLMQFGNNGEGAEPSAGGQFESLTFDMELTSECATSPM

Key:
[1] = molecular target: lysophosphatidic acid receptor 1 (human (endogenous in MDA-MB-231)) (UniProt Q92633); test: co-IP; MDA-MB-231 cell lysate, 500 ug protein with 1 ug primary antibody (anti-LPAR1, anti-IL-6 or anti-IgG) at 4 °C for 4 h, protein G-agarose overnight, washed with PBS, Western blot
[2] = molecular target: moesin (human (endogenous in MDA-MB-231)) (UniProt P26038); test: co-IP; MDA-MB-231 and MDA-MB-468/MSN cell lysates, 500 ug protein with 1 ug primary antibody (anti-MSN, anti-STAT3 or anti-IgG) at 4 °C for 4 h, protein G-agarose overnight, washed with PBS, Western blot
[3] = molecular target: moesin, overexpressed from lentiviral vector Lv105 (MDA-MB-468/MSN cells) (human) (UniProt P26038); test: as above

Row | binding [1] | binding [2] | binding [3] | Substance
1 | binds | – | – | interleukin 6 (from UniProt P05231 30-212) (ligand)
2 | – | binds | binds | signal transducer and transcription activator 3 (from UniProt P40763 1-770)
